Results: US20030220267A1 (priority 2001, published 2003)

Assay: general procedure: hybrid (solid and solution phase) peptide synthesis; dicyclohexylcarbodiimide (DCC) or other coupling reagents
Settings: whole synthesis, based on 1H-NMR

| Substance | crude yield [%] |
| --- | --- |
| [(1R)-1-(Ac-Thr-Leu-Asn)-2-phenylethyl]-B-methylene-L-proline amide borinic acid | 88 |
| [( 1R)-1-(Ac-Ser-Leu-Asn)-2-phenylethyl]-B-methylene-L-proline amide borinic acid | 56 |
